Experimental data reported in PMC10580381 (ACS Pharmacology & Translational Science, 2023).

Legend:
[1] = system: H1650 cells; conditions: gefitinib–SAHA combination, equipotent concentrations, H1650 (resistant), 72 h; CI < 1 synergistic
[2] = system: H1975 cells; conditions: gefitinib–SAHA combination, equipotent concentrations, H1975 (resistant), 72 h; CI < 1 synergistic
[3] = system: H820 cells; conditions: gefitinib–SAHA combination, equipotent concentrations, H820 (resistant), 72 h; CI < 1 synergistic
[4] = system: A549 cells; assay: SRB cell proliferation assay, A549; conditions: gefitinib–SAHA combination, equipotent concentrations, A549 (resistant), 72 h; CI < 1 synergistic
[5] = system: HCC827 cells; assay: SRB cell proliferation assay, HCC827; conditions: gefitinib–SAHA combination, equipotent concentrations, HCC827 (sensitive), 72 h; CI < 1 synergistic
[6] = system: total HDAC activity from the H1975 nuclear extract; conditions: 10 μM (highest concentration tested)

Compound: O=C(CCCCCCC(=O)Nc1ccccc1)NO [SAHA, Vorinostat]
- combination index (CI) [1]: 0.64 ± 0.09
- combination index (CI) [2]: 0.36 ± 0.07
- combination index (CI) [3]: 0.72 ± 0.06
- combination index (CI) [4]: 0.58 ± 0.11
- combination index (CI) [5]: 0.88 ± 0.10
- inhibition of total HDAC activity [6]: ~90%
